PubChem BioAssay AID652272 | Drosophila RNAi Screening Center | 2013
Assay: 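Genome-wide knock-down search for components of Hedgehog signalling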 (primary screen). Cells: Drosophila clone 8 (Cl8) cells. Reagent: long dsRNA against Drosophila genes. Measured: 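Firefly light from a Hedgehog-responsive ptc promoter reporter and Renilla reference light, both read on a plate reader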. Direction: firefly Hh reporter signal: higher = more ptc reporter light; Renilla reference signal: higher = more Renilla control light. Rule for the call: 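Hit when the z-score averaged over two replicates is under -2 or over +3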. Calls: active = hit: reporter lowered or raised; inactive = not a hit.
In all, the deposit lists about 21,000 reagents; this is a random part of those with a known target gene and a result. In the full data, 503 (2.4%) are marked active. 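Raw plate light values, not normalised; calls rest on replicate z-scores that were not deposited; hits include reporter decreases as well as increases.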 Entries without a mark were called inactive. Reagents against one gene are numbered here. Names joined by + are all predicted targets of the reagent. No sequences are given here. Not stated in the record: the amount of reagent, the time to read-out.

Depletion of Or22a came out at: firefly Hh reporter signal, replicate 1 = 1.48e5; firefly Hh reporter signal, replicate 2 = 1.30e5; Renilla reference signal, replicate 1 = 3209; Renilla reference signal, replicate 2 = 2957.
For CG14043, the entry reads firefly Hh reporter signal, replicate 1 = 1.08e5; firefly Hh reporter signal, replicate 2 = 39440; Renilla reference signal, replicate 1 = 2841; Renilla reference signal, replicate 2 = 3884.
Rtca showed firefly Hh reporter signal, replicate 1 = 1.46e5; firefly Hh reporter signal, replicate 2 = 95768; Renilla reference signal, replicate 1 = 2930; Renilla reference signal, replicate 2 = 3344.
CG7031 gave firefly Hh reporter signal, replicate 1 = 1.55e5; firefly Hh reporter signal, replicate 2 = 12347; Renilla reference signal, replicate 1 = 13056; Renilla reference signal, replicate 2 = 825.
Against CG31826, the values are firefly Hh reporter signal, replicate 1 = 96924; firefly Hh reporter signal, replicate 2 = 57735; Renilla reference signal, replicate 1 = 2662; Renilla reference signal, replicate 2 = 4838.
After knock-down of Osi21 the results were firefly Hh reporter signal, replicate 1 = 1.35e5; firefly Hh reporter signal, replicate 2 = 92324; Renilla reference signal, replicate 1 = 3651; Renilla reference signal, replicate 2 = 6944.
Silencing of CG32017 gave: firefly Hh reporter signal, replicate 1 = 4.43e5; firefly Hh reporter signal, replicate 2 = 1.71e5; Renilla reference signal, replicate 1 = 22928; Renilla reference signal, replicate 2 = 3993.
CG12341 gave firefly Hh reporter signal, replicate 1 = 1.18e5; firefly Hh reporter signal, replicate 2 = 75879; Renilla reference signal, replicate 1 = 2850; Renilla reference signal, replicate 2 = 5260.
Depletion of Prosap #1 gave: firefly Hh reporter signal, replicate 1 = 81698; firefly Hh reporter signal, replicate 2 = 71357; Renilla reference signal, replicate 1 = 2176; Renilla reference signal, replicate 2 = 4704.
Prosap #2 scored firefly Hh reporter signal, replicate 1 = 96081; firefly Hh reporter signal, replicate 2 = 70064; Renilla reference signal, replicate 1 = 4052; Renilla reference signal, replicate 2 = 2817.
With knock-down of CG31111, the screen gave firefly Hh reporter signal, replicate 1 = 3.09e5 (active); firefly Hh reporter signal, replicate 2 = 47128; Renilla reference signal, replicate 1 = 23265; Renilla reference signal, replicate 2 = 3018.
CG42450 scored firefly Hh reporter signal, replicate 1 = 64933; firefly Hh reporter signal, replicate 2 = 1.44e5; Renilla reference signal, replicate 1 = 1568; Renilla reference signal, replicate 2 = 5997.
Against Lcp1Psi the deposit lists firefly Hh reporter signal, replicate 1 = 91797; firefly Hh reporter signal, replicate 2 = 3.34e5; Renilla reference signal, replicate 1 = 741; Renilla reference signal, replicate 2 = 14240.
CG30413 scored firefly Hh reporter signal, replicate 1 = 1.35e5; firefly Hh reporter signal, replicate 2 = 1.92e5; Renilla reference signal, replicate 1 = 2940; Renilla reference signal, replicate 2 = 8068.
Knock-down of Tsp42Ea #1 came out at: firefly Hh reporter signal, replicate 1 = 96954; firefly Hh reporter signal, replicate 2 = 54235; Renilla reference signal, replicate 1 = 2261; Renilla reference signal, replicate 2 = 4579.
Against Tsp42Ea #2 the deposit lists firefly Hh reporter signal, replicate 1 = 94448; firefly Hh reporter signal, replicate 2 = 51081; Renilla reference signal, replicate 1 = 2407; Renilla reference signal, replicate 2 = 4537.
CG17472 scored firefly Hh reporter signal, replicate 1 = 88674; firefly Hh reporter signal, replicate 2 = 56918; Renilla reference signal, replicate 1 = 2320; Renilla reference signal, replicate 2 = 5335.
Knock-down of CG18545 gave: firefly Hh reporter signal, replicate 1 = 1.02e5; firefly Hh reporter signal, replicate 2 = 1.27e5; Renilla reference signal, replicate 1 = 3467; Renilla reference signal, replicate 2 = 4000.
Knock-down of CG33502 + CG32857 + CG32500 #1 resulted in: firefly Hh reporter signal, replicate 1 = 4.77e5; firefly Hh reporter signal, replicate 2 = 2.37e5; Renilla reference signal, replicate 1 = 30019; Renilla reference signal, replicate 2 = 4739.
Against CG33502 + CG32857 + CG32500 #2 the deposit lists firefly Hh reporter signal, replicate 1 = 44327; firefly Hh reporter signal, replicate 2 = 2.31e5; Renilla reference signal, replicate 1 = 1004; Renilla reference signal, replicate 2 = 10032.
Depletion of HDAC6 came out at: firefly Hh reporter signal, replicate 1 = 91853; firefly Hh reporter signal, replicate 2 = 1.09e5; Renilla reference signal, replicate 1 = 2016; Renilla reference signal, replicate 2 = 2210.
or gave firefly Hh reporter signal, replicate 1 = 91722; firefly Hh reporter signal, replicate 2 = 53480; Renilla reference signal, replicate 1 = 2640; Renilla reference signal, replicate 2 = 4891.
After knock-down of Rhau the results were firefly Hh reporter signal, replicate 1 = 1.39e5; firefly Hh reporter signal, replicate 2 = 71709; Renilla reference signal, replicate 1 = 5121; Renilla reference signal, replicate 2 = 2792.
Knock-down of snf gave: firefly Hh reporter signal, replicate 1 = 1.01e5; firefly Hh reporter signal, replicate 2 = 64741; Renilla reference signal, replicate 1 = 2865; Renilla reference signal, replicate 2 = 2173.
With knock-down of mRpL39 the results were firefly Hh reporter signal, replicate 1 = 93200; Renilla reference signal, replicate 1 = 1316; Renilla reference signal, replicate 2 = 2352.
With knock-down of Twdlbeta, the screen gave firefly Hh reporter signal, replicate 1 = 87104; firefly Hh reporter signal, replicate 2 = 77224; Renilla reference signal, replicate 1 = 2608; Renilla reference signal, replicate 2 = 5450.
yata showed firefly Hh reporter signal, replicate 1 = 51737; firefly Hh reporter signal, replicate 2 = 93388; Renilla reference signal, replicate 1 = 1392; Renilla reference signal, replicate 2 = 2728.

4 consecutive entries already listed, quoted:
HDAC6 — firefly Hh reporter signal, replicate 1: 91853; firefly Hh reporter signal, replicate 2: 1.09e5; Renilla reference signal, replicate 1: 2016; Renilla reference signal, replicate 2: 2210
or — firefly Hh reporter signal, replicate 1: 91722; firefly Hh reporter signal, replicate 2: 53480; Renilla reference signal, replicate 1: 2640; Renilla reference signal, replicate 2: 4891
Rhau — firefly Hh reporter signal, replicate 1: 1.39e5; firefly Hh reporter signal, replicate 2: 71709; Renilla reference signal, replicate 1: 5121; Renilla reference signal, replicate 2: 2792
snf — firefly Hh reporter signal, replicate 1: 1.01e5; firefly Hh reporter signal, replicate 2: 64741; Renilla reference signal, replicate 1: 2865; Renilla reference signal, replicate 2: 2173
